The whole screen tested about 140,000 compounds, of which about 4,300 (3.1%) were called active. The shares of active, inactive and inconclusive entries below differ from those in the screen.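 The calls were made as follows: active = readout at or below -70, meaning at least 70% loss of cells showing the perinucleolar compartment, a nuclear body marking cancer cells; inconclusive = readout between -30 and a set limit; inactive = the rest.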
assay: High Content Assay for Compounds that inhibit the Assembly of the Perinucleolar Compartment; settings: PC3M PTB-GFP, PNC prevalence imaging, 16 h; at 10 µM; hits give low values;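 also: plate controls were DMSO wells for no effect and camptothecin positive control wells for full effect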
Outline: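 Compounds are pinned in duplicate onto adhered PC3M cells stably expressing GFP-tagged PTB and incubated 16 h at 37 C. Cells are then fixed, nuclei stained with Hoechst, and PNC-positive cells counted.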

Row | SMILES | activity change (PNC), negative = inhibition
1 | COc1cc2c(cc1NC(=O)COC(=O)Cn1cnc3ccccc31)oc1ccccc12 | inconclusive: -46.3%
2 | CCCC(=O)n1nc(-c2ccccc2)nc1N | inconclusive: -56.1%
3 | CN(C)CCOc1nc(-c2ccccc2)nc2c1oc1ccccc12 | inconclusive: -64.2%
4 | COCc1cc(C)nc2sc(C(=O)N3CCCC3)c(N)c12 | active: -117%
5 | Cc1cc(/C=C2/C(=O)NN(c3ccccc3)C2=O)c(C)n1-c1cccc(O)c1 | inconclusive: -34.5%
6 | CN1CCCC1CCNS(=O)(=O)c1ccc(Br)cc1 (stereo not drawn) | active: -109%
7 | O=C(c1ccc(Cl)c(Cl)c1)N1CCOCC1 | inconclusive: -35.8%
8 | CSC(=NC#N)N1CCN(c2ccc(Cl)cc2)CC1 | inconclusive: -37.3%
9 | CCCc1nn(-c2cc(Cl)ccc2OC)c2c1C(=O)CCC2 | active: -97.3%
10 | CC1CCc2c(sc3ncnc(SCC(=O)N4CCN(C(=O)c5ccco5)CC4)c23)C1 (stereo not drawn) | inactive: -25.3%
11 | NS(=O)(=O)c1cccc(NC(=S)NC(=O)C23CC4CC(CC(C4)C2)C3)c1 | inactive: -19.4%
12 | CCOc1ccc(NC(=S)Nc2cc(-c3ccccc3)[nH]n2)cc1 | inactive: 41.1%
13 | Cc1ccc(C(=O)NCc2ccccn2)o1 | inconclusive: -32.3%
14 | Cn1c(O)c(C2=c3ccccc3=NC2=O)sc1=Nc1ccc(Cl)cc1 | inconclusive: -46.7%
15 | Cc1ccc(OCC(=O)NCC(=O)Nc2ccc(F)c(F)c2F)c([N+](=O)[O-])n1 | inconclusive: -41.8%
16 | Cc1ccc(NC(=O)c2cccc(S(=O)(=O)N(C)c3ccccc3)c2)cc1S(=O)(=O)N1CCOCC1 | inactive: -18.3%
17 | COc1ccc(S(=O)(=O)N2CCc3ccccc32)cc1C(=O)OCc1c(C)noc1C | inconclusive: -54.8%
18 | O=C1CC(/C=C/c2ccccc2)(C(=O)NC2CCCC2)N1c1ccc(S(=O)(=O)N2CCCC2)cc1 (stereo not drawn) | inconclusive: -39.5%
19 | O=C(NCc1cccnc1)C1CC(=O)N(CCc2ccccc2)C1 (stereo not drawn) | inconclusive: -32.9%
20 | O=C(CN1CCOCC1)Nc1nc2ccc(Br)cc2s1 | inconclusive: -32%

Row | SMILES | activity change (PNC), negative = inhibition
21 | CCOC(=O)c1nc(Nc2ccc(C(=O)O)cc2)c2ccccc2n1 | inconclusive: -40.4%
22 | COc1ccccc1Nc1nc(N)nc(CSC(=S)N2CCC(C)CC2)n1 | inconclusive: -36.2%
23 | CN(C)CC/C=C1\c2ccccc2COc2ccccc21 | inactive: 51.9%
24 | CC1CC(C)CN(S(=O)(=O)c2ccc(NC(=O)C3COc4ccccc4O3)cc2)C1 (stereo not drawn) | active: -122%
25 | CCOC(=O)/C(C#N)=C\c1ccc(N2CCN(C)CC2)cc1 | inconclusive: -47%
26 | CCc1n[nH]c2c1/C(=N\O)CC(C)(C)C2 | inactive: -17.2%
27 | O=C(CCCCn1c(=O)[nH]c2ccccc2c1=O)N1CCN(c2cccc(C(F)(F)F)c2)CC1 | inconclusive: -54.8%
28 | COCc1[nH]nc2c1C(c1ccc(OC)cc1)C(C#N)=C(N)O2 (stereo not drawn) | inconclusive: -56.1%
29 | Cc1ccc(S(=O)(=O)N2CCN(C)CC2)c(C)c1 | inconclusive: -39.3%
30 | CC(C)N(CCn1c(=S)[nH]c2ccccc2c1=O)C(C)C | inconclusive: -70.7%
31 | O=C(COc1cccc(NC(=O)c2ccccc2)c1)c1ccc(F)cc1 | inconclusive: -54%
32 | Cc1ccccc1Cn1cnc2c(NS(C)(=O)=O)c(C)c(C)cc21 | inconclusive: -48.6%
33 | COc1ccc(OC)c(S(=O)(=O)N(C)CC(=O)Nc2cc(Cl)ccc2OC)c1 | inactive: 2.78%
34 | O=C(CSc1cccc(C(F)(F)F)c1)Nc1cc(S(=O)(=O)N2CCCC2)ccc1Cl | inactive: 62.2%
35 | Cc1cc(C)n(CC(O)CN2C(=O)NC(C)(C)C2=O)n1 (stereo not drawn) | active: -107%
36 | O=C1N=C(N2CCCCC2)S/C1=C\c1cn[nH]c1-c1ccccc1 | inconclusive: -32.4%
37 | CC(=O)c1nc2ccccc2n1S(=O)(=O)c1ccc(Cl)cc1 | inconclusive: -44.5%
38 | Cc1cccc(/C=N/c2sc3c(c2C#N)CCN(Cc2ccccc2)C3)c1O | inconclusive: -35.4%
39 | C=CCNc1nc(-c2c(C)nc3sccn23)cs1 | inactive: -25.1%
40 | CCC(C)c1ccc(OCC(=O)Nc2ccc3[nH]c(=O)[nH]c3c2)cc1 (stereo not drawn) | inconclusive: -43.2%

Quoted from above: entries 15 to 16
Row | SMILES | activity change (PNC), negative = inhibition
15 | Cc1ccc(OCC(=O)NCC(=O)Nc2ccc(F)c(F)c2F)c([N+](=O)[O-])n1 | inconclusive: -41.8%
16 | Cc1ccc(NC(=O)c2cccc(S(=O)(=O)N(C)c3ccccc3)c2)cc1S(=O)(=O)N1CCOCC1 | inactive: -18.3%

Additional structures:

Row | SMILES | activity change (PNC), negative = inhibition
41 | Cc1ccc(Nc2ccc(C(=O)N3CCCC3)cn2)c(C)c1 | inactive: -12.3%
42 | O=C(O)C(Cc1ccccc1)N1Cc2ccccc2C1=O (stereo not drawn) | inconclusive: -39.5%
43 | O=C(Nc1ccc(N2CCCC2)c(Cl)c1)c1ccco1 | inactive: 9.12%
44 | Cc1ccccc1-c1c(C)oc2cc(O)ccc2c1=O | inactive: 5.24%
45 | COC(=O)c1ccc(CSc2nnc(NC(=O)C3CCCO3)s2)cc1 (stereo not drawn) | inconclusive: -50.2%
46 | COc1ccc(NC(=O)CN2CCN(CC(=O)Nc3ccccc3Cl)CC2)c(OC)c1 | inconclusive: -51.9%
47 | COc1ccc(N2CCN(C(=O)CSc3ccccc3)CC2)cc1 | inactive: 17.1%
48 | C/C(=N\Nc1nc2c(s1)CCCC2)c1ccccc1 | inactive: 11%
49 | Cc1ccccc1-n1nnnc1SCC(=O)Nc1ccc(S(=O)(=O)N2CCCC2)cc1 | inconclusive: -54.5%
50 | CCOC(=O)c1c(NC(=O)C(F)(OC)C(F)(F)F)sc(C(=O)N2CCCCC2)c1C (stereo not drawn) | inconclusive: -44%
51 | CCOC(=O)c1cc(-c2ccc(/C=N\n3cnnc3)o2)ccc1Cl | inconclusive: -66.3%
52 | C[C@]12CC[C@@H]3c4ccc(O)cc4CC[C@H]3[C@@H]1C[C@@H](O)[C@@H]2O | inconclusive: -52.5%
53 | Cc1cc(C)cc(Nc2ncc3c(n2)CC(c2ccco2)CC3=O)c1 (stereo not drawn) | inconclusive: -53.1%
54 | Cn1cnc2cc(NC(=O)c3ccco3)ccc21 | inconclusive: -36.4%
55 | N#C/C(=C\c1ccc(-c2ccc(C(=O)O)cc2)o1)C(=O)NCC1CCCO1 (stereo not drawn) | inactive: -11.5%
56 | Cc1cc(-n2c(=O)c(C#N)cc3c(=O)n4ccccc4nc32)no1 | inconclusive: -40.9%
57 | O=C(NCc1ccccn1)c1ccc2ccccc2n1 | inactive: 88.9%
58 | COc1cccc2cc(C(=O)N3CCc4ccccc4C3)c(=O)oc12 | inconclusive: -30.4%

Laid out differently: 2 of the compounds above.
Row	SMILES	activity change (PNC), negative = inhibition
42	O=C(O)C(Cc1ccccc1)N1Cc2ccccc2C1=O (stereo not drawn)	inconclusive: -39.5%
43	O=C(Nc1ccc(N2CCCC2)c(Cl)c1)c1ccco1	inactive: 9.12%
